Results are given in words; binding and its absence hold for the method and conditions named. Binding seen in cells or lysates may run through a third protein. Some entries that bind do so weakly or less than the wild type.
Legend:
[1] = molecular target: green fluorescent protein (GFP)-tagged mouse HP1β (heterochromatin protein 1β) (mouse) (UniProt P83917); assay: coimmunoprecipitation
[2] = molecular target: green fluorescent protein (GFP)-tagged mouse HP1β (heterochromatin protein 1β) (mouse) (UniProt P83917); assay: coimmunoprecipitation (legend of FIG. 4C)
[3] = molecular target: green fluorescent protein (GFP)-tagged mouse HP1β (heterochromatin protein 1β) (mouse) (UniProt P83917); assay: coimmunoprecipitation with anti-Flag from lysate of cotransfected MGC803 cells; Western blot with anti-GFP

Protein sequences, listed by entry. Tags and fused reporters are not part of them. Lines headed by an entry give the natural chain unless they say otherwise; changes in a name come on top.
UniProt P83917: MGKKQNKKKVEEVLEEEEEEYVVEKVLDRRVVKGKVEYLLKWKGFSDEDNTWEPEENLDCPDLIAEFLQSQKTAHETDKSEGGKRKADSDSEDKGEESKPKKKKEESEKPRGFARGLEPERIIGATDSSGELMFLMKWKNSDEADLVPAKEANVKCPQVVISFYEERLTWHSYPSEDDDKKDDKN
UniProt Q8N141: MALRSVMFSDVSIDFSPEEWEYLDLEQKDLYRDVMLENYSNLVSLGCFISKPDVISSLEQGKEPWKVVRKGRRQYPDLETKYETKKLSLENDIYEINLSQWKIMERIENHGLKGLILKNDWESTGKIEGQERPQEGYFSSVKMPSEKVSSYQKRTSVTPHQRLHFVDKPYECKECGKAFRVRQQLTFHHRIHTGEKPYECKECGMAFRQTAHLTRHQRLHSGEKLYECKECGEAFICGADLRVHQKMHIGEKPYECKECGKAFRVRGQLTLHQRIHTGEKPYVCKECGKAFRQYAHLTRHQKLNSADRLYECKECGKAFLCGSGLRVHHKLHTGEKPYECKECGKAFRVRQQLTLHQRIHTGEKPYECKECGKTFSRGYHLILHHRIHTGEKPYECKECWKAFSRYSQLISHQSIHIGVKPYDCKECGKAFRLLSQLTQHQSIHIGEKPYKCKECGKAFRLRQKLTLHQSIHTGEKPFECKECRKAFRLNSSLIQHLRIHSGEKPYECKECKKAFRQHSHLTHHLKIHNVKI

Measured: binding

Flag-ZNF545 (Flag-tagged full-length human zinc-finger protein 545) (from UniProt Q8N141 1-532)
binds: all assays above
